From PubChem BioAssay AID504832 (National Center for Advancing Translational Sciences (NCATS), 2011)
The campaign covered roughly 310,000 compounds. About 18,000 (5.8%) were called active. Listed are the inconclusive results; actives and inactives stand elsewhere. The call rests on the fitted dose curve; in most records, active means well fitted inhibition curve with a large enough effect; inconclusive means small, poorly fitted or top-dose-only effect, or another doubt; inactive means no such curve, though single readings can be large or run the other way. Some results for these compounds are left out of this collection, so the calls shown say nothing about other tests.

Test: Primary qHTS for delayed death inhibitors of the malarial parasite plastid, 48 hour incubation
Conditions: P. falciparum luciferase growth in erythrocytes
Source text: The goal of this screen is to discover new antimalarial compounds that act by inhibiting the development of the apicoplast in the malarial parasite Plasmodium falciparum. The biochemical processes that make this organelle essential for erythrocytic stage parasites are not well understood. However, antibiotics such as azithromycin and tetracycline, which target the apicoplast translational machinery, have a potent antimalarial effect.
We have developed a cell-based assay that measures parasite growth based on the expression of an integrated copy of a firefly luciferase reporter. To detect small molecules that cause this "delayed death" phenotype, erythrocytes infected with the luciferase-expressing parasites were incubated with compounds for either one or two generations, corresponding to 48 and 96 hours, respectively. Compounds that inhibit parasite growth in the second generation, but not the first, should be enriched in antimalarials that target the apicoplast. Growth inhibition is detected by a decrease in luciferase activity.
Assay Provider: David Fidock and Eric Ekland, Columbia University
Keywords: NIH Roadmap, MLPCN, MLI, MLSMR, qHTS, NCGC, qHTS, malaria, luciferase, viability
Four microliters of culture medium (RPMI 1640 with 0.5% w/v Albumax (GIBCO), 24 mM sodium bicarbonate and 10 ug/mL gentamycin) were dispensed by a Multi-drop Combi into white solid 1536-well plates (Grenier) and 23 nL compound was added by a pin tool. Four microliters of infected erythrocytes (2% hematocrit, 0.1% parasitemia final concentration) in culture medium were dispensed and the plates incubated for 48 hours at 37 C in 5% CO2. Two microliters of luciferase detection reagent was added and luminescence was detected by a ViewLux (PerkinElmer) reader.
Potency means the concentration at half of the fitted maximal effect.

Row | SMILES | Potency
1 | Cc1ccccc1C(=O)NCC1(N2CCCCC2)CCCCC1 | inconclusive: 4.65 µM
2 | CCN1CCCC(OC(=O)C2(O)c3ccccc3C=Cc3ccccc32)C1 (stereo unspecified) | inconclusive: 18.5 µM
3 | O=C(NCC1(N2CCCCC2)CCCCC1)c1cc([N+](=O)[O-])ccc1Cl | inconclusive: 11.7 µM
4 | CCCCC(CC)C(=O)N1CCN(C/C=C/c2ccccc2)CC1 (stereo unspecified) | inconclusive: 10.4 µM
5 | CN(C)c1cccc(C(=O)NCC2(N(C)C)CCCCC2)c1 | inconclusive: 10.4 µM
6 | COc1cccc(C(=O)NCC2(N3CCCCC3)CCCCC2)c1 | inconclusive: 18.5 µM
